PMC3917433
No constants are given. Whether binding was seen depends on the method and setting. Some entries that bind do so weakly or less than the wild type.

Sequences of proteins named here, by UniProt entry; tags and fusion partners are left off. Residues count along the entry.
UniProt P14625, residues 22-803: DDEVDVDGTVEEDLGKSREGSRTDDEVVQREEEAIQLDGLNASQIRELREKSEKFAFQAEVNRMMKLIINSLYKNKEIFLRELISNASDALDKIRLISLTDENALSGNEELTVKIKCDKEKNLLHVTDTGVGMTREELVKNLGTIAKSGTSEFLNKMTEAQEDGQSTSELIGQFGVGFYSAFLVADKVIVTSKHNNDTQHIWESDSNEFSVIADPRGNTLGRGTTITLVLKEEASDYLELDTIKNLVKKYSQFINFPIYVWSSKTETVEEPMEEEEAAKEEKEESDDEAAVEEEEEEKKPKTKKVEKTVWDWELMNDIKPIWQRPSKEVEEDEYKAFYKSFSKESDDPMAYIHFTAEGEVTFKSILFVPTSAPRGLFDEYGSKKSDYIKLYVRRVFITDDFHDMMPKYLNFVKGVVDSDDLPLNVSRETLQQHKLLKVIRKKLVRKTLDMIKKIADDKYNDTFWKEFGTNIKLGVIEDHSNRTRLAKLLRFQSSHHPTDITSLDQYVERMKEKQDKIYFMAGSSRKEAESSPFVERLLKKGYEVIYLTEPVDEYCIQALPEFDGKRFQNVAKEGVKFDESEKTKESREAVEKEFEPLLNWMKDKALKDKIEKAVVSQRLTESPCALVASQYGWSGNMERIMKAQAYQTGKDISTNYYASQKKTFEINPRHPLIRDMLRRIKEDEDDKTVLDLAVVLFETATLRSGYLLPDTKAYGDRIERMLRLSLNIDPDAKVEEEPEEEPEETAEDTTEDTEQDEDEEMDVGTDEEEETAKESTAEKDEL
UniProt Q5VU43: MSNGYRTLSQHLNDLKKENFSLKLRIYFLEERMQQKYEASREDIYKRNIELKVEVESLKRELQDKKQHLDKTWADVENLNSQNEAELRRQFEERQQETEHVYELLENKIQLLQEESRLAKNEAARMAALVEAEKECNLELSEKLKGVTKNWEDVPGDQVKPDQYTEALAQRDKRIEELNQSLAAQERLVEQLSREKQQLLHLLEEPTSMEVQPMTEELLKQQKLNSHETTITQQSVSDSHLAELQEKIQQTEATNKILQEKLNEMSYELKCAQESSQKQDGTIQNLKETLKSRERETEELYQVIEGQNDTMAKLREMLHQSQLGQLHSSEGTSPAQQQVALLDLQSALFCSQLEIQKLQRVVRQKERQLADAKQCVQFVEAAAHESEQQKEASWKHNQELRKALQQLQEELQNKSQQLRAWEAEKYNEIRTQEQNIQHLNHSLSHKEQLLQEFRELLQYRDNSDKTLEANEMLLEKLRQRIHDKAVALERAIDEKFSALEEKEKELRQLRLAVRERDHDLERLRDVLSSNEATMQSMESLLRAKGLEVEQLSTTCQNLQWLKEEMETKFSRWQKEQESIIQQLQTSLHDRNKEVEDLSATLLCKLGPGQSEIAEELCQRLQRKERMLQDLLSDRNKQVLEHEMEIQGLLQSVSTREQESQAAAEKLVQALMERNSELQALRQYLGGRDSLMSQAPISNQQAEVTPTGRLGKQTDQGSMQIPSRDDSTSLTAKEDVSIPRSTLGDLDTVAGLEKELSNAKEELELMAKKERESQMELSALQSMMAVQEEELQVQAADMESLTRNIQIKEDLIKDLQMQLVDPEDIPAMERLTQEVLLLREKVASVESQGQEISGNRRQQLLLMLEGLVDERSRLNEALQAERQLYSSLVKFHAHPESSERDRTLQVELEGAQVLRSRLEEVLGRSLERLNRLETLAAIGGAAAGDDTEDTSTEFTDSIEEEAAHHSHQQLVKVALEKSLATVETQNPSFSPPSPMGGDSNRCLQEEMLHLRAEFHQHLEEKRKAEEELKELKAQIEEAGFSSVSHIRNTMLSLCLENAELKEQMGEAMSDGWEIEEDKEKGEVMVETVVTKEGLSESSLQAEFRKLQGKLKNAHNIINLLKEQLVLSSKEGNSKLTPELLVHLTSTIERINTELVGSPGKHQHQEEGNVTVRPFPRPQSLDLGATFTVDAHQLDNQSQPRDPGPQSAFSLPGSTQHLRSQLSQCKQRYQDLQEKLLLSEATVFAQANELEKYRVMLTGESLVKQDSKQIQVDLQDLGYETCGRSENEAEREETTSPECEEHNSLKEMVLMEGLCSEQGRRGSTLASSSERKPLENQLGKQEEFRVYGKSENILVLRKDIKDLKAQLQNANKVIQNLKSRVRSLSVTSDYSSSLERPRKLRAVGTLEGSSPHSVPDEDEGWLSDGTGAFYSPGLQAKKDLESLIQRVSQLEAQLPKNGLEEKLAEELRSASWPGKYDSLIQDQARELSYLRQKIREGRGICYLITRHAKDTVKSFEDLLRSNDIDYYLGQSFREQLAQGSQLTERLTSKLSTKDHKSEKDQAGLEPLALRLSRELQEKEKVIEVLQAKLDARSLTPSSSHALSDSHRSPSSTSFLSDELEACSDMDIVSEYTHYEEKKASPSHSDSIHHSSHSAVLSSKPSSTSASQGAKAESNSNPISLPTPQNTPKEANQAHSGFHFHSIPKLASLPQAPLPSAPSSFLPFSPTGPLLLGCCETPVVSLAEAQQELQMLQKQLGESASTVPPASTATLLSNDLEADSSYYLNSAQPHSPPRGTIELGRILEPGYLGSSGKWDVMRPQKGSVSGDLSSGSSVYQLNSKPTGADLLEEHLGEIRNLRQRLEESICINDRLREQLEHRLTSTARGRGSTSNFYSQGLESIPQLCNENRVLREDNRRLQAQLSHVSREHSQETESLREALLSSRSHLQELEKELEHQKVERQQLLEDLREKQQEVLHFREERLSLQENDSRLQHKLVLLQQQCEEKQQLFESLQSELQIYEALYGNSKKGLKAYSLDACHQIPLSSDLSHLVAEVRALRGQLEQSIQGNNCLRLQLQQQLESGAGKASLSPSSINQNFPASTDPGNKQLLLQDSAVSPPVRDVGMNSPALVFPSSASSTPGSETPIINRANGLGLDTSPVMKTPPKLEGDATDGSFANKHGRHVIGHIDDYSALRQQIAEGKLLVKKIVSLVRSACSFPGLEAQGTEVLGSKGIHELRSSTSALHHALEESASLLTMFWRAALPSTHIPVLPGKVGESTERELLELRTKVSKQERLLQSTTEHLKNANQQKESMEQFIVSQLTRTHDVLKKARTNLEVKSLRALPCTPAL
UniProt Q99962: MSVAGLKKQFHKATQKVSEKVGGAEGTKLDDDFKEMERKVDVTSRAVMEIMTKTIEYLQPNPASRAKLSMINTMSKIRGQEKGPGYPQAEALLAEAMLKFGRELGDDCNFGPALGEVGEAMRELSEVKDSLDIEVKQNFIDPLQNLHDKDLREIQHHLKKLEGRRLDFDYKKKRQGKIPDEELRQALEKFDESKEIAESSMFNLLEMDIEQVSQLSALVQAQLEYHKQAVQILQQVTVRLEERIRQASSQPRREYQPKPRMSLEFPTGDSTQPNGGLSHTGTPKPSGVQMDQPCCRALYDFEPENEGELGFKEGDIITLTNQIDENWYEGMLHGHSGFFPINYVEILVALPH
UniProt Q99700: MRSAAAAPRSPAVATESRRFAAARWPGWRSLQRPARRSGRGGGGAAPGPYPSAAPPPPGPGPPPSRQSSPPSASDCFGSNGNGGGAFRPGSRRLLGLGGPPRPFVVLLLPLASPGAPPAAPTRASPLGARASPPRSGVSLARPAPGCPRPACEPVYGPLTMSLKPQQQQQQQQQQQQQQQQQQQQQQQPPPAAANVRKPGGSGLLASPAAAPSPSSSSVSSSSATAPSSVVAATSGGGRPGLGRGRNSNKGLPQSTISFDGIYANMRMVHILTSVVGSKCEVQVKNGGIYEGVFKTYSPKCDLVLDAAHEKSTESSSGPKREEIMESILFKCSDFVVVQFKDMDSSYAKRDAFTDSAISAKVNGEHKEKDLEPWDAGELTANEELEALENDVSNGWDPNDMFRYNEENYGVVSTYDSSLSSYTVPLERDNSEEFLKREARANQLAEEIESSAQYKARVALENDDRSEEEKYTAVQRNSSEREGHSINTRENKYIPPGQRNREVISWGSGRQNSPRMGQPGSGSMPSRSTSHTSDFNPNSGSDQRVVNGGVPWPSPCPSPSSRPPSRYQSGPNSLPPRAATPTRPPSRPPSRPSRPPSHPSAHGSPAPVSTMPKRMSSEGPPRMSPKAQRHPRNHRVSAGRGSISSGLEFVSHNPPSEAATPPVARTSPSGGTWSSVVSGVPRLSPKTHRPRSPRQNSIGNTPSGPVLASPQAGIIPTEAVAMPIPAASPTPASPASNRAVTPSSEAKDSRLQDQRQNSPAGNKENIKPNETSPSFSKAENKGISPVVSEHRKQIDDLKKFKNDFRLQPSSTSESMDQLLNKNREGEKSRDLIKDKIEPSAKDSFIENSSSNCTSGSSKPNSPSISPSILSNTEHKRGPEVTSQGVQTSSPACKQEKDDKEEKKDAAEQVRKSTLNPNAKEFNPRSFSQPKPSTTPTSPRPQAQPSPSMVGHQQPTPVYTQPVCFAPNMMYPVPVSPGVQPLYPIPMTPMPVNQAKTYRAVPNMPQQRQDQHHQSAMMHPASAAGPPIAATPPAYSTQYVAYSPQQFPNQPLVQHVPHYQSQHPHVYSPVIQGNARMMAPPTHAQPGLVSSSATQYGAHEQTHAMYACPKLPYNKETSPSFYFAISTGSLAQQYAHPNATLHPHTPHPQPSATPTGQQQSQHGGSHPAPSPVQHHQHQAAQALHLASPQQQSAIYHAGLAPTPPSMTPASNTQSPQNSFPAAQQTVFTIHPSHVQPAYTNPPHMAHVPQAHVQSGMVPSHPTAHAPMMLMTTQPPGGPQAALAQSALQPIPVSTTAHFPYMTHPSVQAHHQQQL
UniProt Q96JK2: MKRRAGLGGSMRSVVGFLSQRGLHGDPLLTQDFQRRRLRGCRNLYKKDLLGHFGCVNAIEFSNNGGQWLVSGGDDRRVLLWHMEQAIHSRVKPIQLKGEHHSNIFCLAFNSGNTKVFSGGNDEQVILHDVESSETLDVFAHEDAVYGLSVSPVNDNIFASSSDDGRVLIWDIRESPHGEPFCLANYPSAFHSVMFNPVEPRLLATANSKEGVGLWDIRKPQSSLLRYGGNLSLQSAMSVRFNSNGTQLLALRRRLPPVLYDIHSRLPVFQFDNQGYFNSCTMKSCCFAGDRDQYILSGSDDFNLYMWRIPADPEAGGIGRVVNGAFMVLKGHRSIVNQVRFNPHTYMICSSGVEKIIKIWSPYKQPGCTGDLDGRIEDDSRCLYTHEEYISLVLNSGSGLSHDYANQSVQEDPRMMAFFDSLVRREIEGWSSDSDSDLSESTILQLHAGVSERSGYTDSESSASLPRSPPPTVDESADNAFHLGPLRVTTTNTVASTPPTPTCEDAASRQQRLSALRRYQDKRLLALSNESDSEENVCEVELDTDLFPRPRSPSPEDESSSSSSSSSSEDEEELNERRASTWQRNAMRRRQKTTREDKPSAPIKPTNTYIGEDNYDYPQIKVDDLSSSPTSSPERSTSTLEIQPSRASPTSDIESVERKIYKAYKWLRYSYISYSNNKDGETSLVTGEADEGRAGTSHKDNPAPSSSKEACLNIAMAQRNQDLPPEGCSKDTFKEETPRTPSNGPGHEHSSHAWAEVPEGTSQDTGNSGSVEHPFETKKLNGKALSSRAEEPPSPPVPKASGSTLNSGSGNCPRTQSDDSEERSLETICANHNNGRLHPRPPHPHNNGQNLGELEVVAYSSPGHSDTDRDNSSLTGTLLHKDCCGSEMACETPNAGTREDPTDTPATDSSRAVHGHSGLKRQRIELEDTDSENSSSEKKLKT
UniProt P13202: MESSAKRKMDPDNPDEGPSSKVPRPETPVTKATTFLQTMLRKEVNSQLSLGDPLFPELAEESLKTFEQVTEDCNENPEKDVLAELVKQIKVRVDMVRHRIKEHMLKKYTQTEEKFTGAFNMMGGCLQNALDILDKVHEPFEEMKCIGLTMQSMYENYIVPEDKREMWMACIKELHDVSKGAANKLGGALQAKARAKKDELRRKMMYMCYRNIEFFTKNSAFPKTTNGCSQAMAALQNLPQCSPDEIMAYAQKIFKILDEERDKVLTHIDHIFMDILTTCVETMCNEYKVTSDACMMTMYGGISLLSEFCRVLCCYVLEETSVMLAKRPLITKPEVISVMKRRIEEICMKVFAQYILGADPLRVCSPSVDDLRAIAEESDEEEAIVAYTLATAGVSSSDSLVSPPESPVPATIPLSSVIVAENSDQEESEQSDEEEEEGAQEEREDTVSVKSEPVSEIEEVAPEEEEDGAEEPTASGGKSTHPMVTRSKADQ

Assays:
Experiment in all cases: peptide or protein array; only the binder purified
[1] = target: Tumor rejection antigen (gp96) 1 (human) (UniProt P14625)
[2] = target: T1, Serine/threonine kinase ULK1 (ULK1) (human) (UniProt O75385)
T1 sequence: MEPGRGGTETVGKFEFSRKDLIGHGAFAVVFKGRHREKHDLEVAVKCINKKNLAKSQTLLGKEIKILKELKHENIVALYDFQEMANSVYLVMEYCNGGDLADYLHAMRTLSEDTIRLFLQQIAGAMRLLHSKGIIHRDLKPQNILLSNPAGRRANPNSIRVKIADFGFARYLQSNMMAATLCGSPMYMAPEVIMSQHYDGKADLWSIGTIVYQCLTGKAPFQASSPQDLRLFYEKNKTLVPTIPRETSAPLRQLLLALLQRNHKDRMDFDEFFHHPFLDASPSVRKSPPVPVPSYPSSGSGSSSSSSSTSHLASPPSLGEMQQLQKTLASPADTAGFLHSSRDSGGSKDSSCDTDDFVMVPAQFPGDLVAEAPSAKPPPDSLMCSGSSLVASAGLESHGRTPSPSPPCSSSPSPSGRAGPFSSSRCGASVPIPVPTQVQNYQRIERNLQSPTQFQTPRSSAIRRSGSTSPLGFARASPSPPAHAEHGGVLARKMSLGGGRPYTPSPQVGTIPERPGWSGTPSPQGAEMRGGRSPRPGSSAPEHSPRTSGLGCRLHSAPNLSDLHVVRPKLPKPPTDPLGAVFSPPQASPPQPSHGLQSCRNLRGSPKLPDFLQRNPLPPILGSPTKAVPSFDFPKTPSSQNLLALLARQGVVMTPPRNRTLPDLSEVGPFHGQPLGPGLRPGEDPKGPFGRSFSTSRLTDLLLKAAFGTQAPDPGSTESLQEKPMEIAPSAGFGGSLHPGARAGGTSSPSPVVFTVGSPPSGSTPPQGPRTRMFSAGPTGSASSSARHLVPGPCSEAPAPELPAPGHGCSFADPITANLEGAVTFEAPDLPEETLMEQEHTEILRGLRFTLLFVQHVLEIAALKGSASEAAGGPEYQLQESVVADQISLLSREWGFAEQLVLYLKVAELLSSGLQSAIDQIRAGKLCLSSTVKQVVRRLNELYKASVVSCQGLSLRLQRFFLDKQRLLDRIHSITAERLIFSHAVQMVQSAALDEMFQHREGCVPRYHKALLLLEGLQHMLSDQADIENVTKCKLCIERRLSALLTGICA

[3] = target: Phosphodiesterase 4D interacting protein (myomegalin) (human) (UniProt Q5VU43)
[4] = target: Death-associated protein 6 (DAXX) (human) (UniProt Q9UER7)
[5] = target: SH3-domain GRB2-like 2 (SH3GL2) (human) (UniProt Q99962)
Ataxin 2 (ATXN2) (human) = Ataxin 2 (ATXN2) (human) (UniProt Q99700)
[6] = target: BCL2-associated transcription factor 1 (human) (UniProt Q9NYF8)
Sequestosome 1 (human) = Sequestosome 1 (human) (UniProt Q13501)
Tensin 3 (TNS3) (human) = target: T2, Tensin 3 (TNS3) (human) (UniProt Q68CZ2)
T2 sequence: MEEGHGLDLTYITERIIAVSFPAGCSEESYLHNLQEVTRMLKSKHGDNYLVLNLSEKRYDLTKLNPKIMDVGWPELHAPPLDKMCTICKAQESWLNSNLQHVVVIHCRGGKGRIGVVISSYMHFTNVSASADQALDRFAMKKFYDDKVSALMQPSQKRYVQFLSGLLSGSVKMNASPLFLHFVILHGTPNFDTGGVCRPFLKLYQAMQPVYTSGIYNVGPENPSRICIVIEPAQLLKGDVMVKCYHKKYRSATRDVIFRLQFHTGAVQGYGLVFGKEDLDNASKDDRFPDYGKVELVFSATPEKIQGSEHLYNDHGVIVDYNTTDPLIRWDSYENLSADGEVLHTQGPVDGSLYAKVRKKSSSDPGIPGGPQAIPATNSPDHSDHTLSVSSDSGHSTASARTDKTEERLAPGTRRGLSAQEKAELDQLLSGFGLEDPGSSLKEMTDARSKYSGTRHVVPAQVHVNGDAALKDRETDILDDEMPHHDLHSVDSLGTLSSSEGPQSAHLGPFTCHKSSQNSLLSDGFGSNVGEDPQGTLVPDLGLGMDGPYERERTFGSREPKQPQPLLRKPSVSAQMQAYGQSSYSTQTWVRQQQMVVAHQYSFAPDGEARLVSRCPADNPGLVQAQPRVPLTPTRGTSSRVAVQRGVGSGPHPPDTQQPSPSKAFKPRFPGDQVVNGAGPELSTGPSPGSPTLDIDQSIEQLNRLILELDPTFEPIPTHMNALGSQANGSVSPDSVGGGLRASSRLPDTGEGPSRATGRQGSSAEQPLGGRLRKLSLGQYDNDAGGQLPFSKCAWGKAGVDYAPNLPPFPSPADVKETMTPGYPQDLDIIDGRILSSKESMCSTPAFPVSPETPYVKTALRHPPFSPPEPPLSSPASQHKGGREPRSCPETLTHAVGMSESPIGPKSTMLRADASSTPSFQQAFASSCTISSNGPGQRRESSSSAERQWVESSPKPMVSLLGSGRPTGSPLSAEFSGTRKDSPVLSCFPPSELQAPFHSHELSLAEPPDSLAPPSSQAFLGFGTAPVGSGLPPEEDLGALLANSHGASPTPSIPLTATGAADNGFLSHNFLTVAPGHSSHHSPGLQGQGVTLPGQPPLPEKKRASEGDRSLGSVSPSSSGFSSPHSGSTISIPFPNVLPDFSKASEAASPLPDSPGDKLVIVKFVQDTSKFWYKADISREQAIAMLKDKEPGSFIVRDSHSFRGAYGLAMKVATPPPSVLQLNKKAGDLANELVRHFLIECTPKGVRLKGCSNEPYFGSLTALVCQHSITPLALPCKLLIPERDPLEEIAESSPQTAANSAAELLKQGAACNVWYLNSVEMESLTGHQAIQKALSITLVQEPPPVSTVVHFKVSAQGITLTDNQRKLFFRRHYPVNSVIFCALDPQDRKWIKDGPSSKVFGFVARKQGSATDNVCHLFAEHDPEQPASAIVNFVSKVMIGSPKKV

[7] = target: WD repeat domain 22 (WDR22) (human) (UniProt Q96JK2)

Measured: binding

Human cytomegalovirus immediate-early protein 1 (from UniProt P13202 1-491)
binds: all assays above
